# For at least one entry, the source does not settle the construct or the ends of the probe. Weaker means in comparison with the reference protein, sequence or condition of that experiment.
# Test system: PAL
# Test: plate RNA binding assay (RiboGreen), immobilized PAL
# Conditions: dark; 12 mM HEPES/KOH pH 7.2, 135 mM KCl, 10 mM NaCl, 10% w/v glycerol, 0.5 mg/mL heparin, 0.5 mg/mL BSA, 25 C, 30 min, 465 nm light or dark, 100 or 1000 nM …; recombinant protein
sequence,measurement,value
GGGAGGACGAUGCGGCCCGUACAGCAGCGAUGCGGGUCGCGUGUCCACCCCGGCUCAGACGACUCGCUGAGGAUCCGAGA [aptamer 53],binding result,binds more weakly
